From PubChem BioAssay AID1347423 (Functional Genomics Laboratory (NCATS/FGL), 2020)
Hit rate of the full screen: of about 52,000 sequences, about 210 (0.4%) were called active.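 How the source made its calls: active means gene whose silencing raises cell survival under the drug, median off-target-corrected z-score across its silencing RNAs 2 or more; inactive means the rest.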 This is one part of the list.

Test: Resistance to Poly (ADP-Ribose) Polymerase inhibitor: Gene Identification via Genome-wide siRNA Screen
Details: mouse BRCA2 R2336H ES cells, olaparib, CellTiter-Glo viability; stronger effect = higher value
Procedure, shortened: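 Genome-wide siRNA screen (3 siRNAs/gene, 20 nM) in mouse ES cells carrying hypomorphic BRCA2 R2336H; olaparib 500 nM added 48 h post-transfection, CellTiter-Glo viability 72 h later. Normalized to plate-median negative control; MAD z-scores, gene median, seed-adjusted.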
With “GCGAGCAUGAAGUUAGUAATT against C230029F24Rik” the z-score was inactive: -0.429.
In the case of CCUGUGAAAGAUGCUUAUATT against Capn7, the z-score is reported as inactive: 2.01.
With GGCACGAUACUUAUUUGAATT against Nudt13 the z-score was inactive: -0.941.
For GCUAUUGACCAGGUUAUAATT against Pdhb, the z-score was inactive: 0.381.
With CCAGAUGGUCUAUAUCGUATT against Plscr4 the z-score was inactive: 0.973.
With GCCUCCAUAAUUGUCAAUATT against Rbks the z-score was inactive: -0.061.
With GGCUUUGGAUGUUUUUGUATT against Fgf10 the z-score was inactive: -0.728.
In the case of GGGAGUCCGUUCAAACUCGTT against Pttg1, the z-score is reported as inactive: 1.28.
In the case of GGUGGAAGUUUUCAGUGGCTT against Axud1, the z-score is reported as inactive: 1.03.
In the case of GGAGUGUGCGGAACAUUCUTT against Slc17a5, the z-score is reported as inactive: 2.13.
For GGCCAUUUCCAUCAGAGGATT against Vav2, the z-score was inactive: -0.871.
With GGACUGUUGCAUGACUCUCTT against Evc the z-score was inactive: 0.352.
In the case of “GGAAGUGCUACUUUCUGGGTT against 2810417M05Rik”, the z-score is reported as inactive: 1.37.
For GGUUCAUAAUGCCUUCAAGTT against Olfr1449, the z-score was inactive: 0.869.
In the case of CCUACUCUCUAGAAAAGGATT against Olfr1006, the z-score is reported as inactive: -0.881.
For GGAGUUGUUCAGGUCCCGATT against Crlf1, the z-score was inactive: -0.815.
For GGCGUGCUUUCUACCAAGGTT against Slco1a5, the z-score was inactive: -0.85.
With “GGUCCCUAGAAAUUCGGGATT against 3632410F03Rik” the z-score was inactive: 0.382.
For GGUCUUACCUUUUGAAAAATT against Mtbp, the z-score was inactive: -1.46.
For GCUUUGACCUCGAAAAUGGTT against Pde4c, the z-score was inactive: 0.254.
For CCAGAGUCGCUACAAAAUUTT against V1rd21, the z-score was inactive: -0.451.
With GGUGUUUGCUAAGGUGCUCTT against Ampd3 the z-score was inactive: 1.27.
For CCACCUAUUACAUGAUCUUTT against Rnf32, the z-score was inactive: -0.321.
With “GCACAAGAUUGACAAGAGCTT against 5430437P03Rik” the z-score was inactive: -0.323.
For “GGUGCCUCUUAAAUAAAAATT against A630008I04”, the z-score was inactive: -1.3.
For CCCUGAUACUCAAUGAAGATT against BC049762, the z-score was inactive: -0.199.
For CCACAUCUAAAGUUCAAGATT against Map3k7ip2, the z-score was inactive: -1.5.
With GGGAGAGAGUUGGCUCUGATT against Prg3 the z-score was inactive: 0.0449.
For CCAGUUGUGUGAAUUAUGUTT against Psmd2, the z-score was inactive: -2.44.
